Measurements from the supplement of paper PMC10849652.
The list shows a part of the results.

Protein sequences, listed by entry. Tags and fused reporters are not part of them. Lines headed by an entry give the natural chain unless they say otherwise; changes in a name come on top.
UniProt Q9UIA9: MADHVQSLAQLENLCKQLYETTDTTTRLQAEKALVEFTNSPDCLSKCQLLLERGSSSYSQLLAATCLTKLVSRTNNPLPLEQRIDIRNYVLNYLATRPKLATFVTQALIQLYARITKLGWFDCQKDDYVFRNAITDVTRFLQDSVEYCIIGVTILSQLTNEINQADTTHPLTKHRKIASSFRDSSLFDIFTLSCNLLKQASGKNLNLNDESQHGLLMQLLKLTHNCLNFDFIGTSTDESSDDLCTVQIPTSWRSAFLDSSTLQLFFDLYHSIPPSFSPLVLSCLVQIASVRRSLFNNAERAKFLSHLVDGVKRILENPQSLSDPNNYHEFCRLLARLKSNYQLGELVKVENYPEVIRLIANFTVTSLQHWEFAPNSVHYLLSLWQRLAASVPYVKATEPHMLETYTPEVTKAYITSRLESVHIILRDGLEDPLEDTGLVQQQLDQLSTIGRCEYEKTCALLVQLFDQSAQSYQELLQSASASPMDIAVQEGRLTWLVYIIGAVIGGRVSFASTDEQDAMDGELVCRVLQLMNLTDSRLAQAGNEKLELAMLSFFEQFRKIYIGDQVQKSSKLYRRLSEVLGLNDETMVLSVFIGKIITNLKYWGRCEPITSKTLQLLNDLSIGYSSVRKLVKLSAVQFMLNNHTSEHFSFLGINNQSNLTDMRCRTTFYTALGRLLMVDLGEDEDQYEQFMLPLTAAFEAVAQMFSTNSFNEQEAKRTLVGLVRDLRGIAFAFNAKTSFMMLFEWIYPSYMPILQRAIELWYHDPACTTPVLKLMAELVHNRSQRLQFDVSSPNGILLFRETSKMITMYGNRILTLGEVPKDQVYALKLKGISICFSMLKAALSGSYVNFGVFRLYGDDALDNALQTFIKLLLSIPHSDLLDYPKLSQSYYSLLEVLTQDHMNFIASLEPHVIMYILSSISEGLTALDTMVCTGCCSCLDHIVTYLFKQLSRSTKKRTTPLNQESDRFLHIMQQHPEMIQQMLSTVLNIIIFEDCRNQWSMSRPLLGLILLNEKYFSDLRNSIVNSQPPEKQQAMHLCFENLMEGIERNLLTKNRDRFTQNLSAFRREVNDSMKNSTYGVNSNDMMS
UniProt P62699: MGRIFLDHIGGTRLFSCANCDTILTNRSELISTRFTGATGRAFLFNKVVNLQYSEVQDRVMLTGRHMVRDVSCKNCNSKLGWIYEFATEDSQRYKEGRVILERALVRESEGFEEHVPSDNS
UniProt Q8IY57: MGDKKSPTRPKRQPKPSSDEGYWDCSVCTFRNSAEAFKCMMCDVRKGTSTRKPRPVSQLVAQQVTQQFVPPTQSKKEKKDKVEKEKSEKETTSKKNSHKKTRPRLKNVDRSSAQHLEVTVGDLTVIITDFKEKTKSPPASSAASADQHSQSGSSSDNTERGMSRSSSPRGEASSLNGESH
UniProt Q13426: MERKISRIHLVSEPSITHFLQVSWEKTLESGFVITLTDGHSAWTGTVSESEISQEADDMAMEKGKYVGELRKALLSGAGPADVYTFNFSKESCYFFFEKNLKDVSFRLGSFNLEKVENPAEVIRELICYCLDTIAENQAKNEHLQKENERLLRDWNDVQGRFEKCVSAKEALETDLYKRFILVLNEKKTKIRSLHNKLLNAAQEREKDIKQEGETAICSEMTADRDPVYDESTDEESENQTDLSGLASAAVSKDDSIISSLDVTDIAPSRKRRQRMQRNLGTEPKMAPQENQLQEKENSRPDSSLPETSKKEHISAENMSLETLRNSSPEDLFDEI
UniProt P27348: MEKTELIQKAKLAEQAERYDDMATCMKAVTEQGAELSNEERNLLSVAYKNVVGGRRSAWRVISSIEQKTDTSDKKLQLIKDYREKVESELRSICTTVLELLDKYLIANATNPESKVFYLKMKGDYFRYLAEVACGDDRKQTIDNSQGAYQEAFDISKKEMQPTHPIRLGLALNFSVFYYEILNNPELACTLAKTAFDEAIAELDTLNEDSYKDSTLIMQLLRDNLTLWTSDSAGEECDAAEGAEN
UniProt Q5BJH7: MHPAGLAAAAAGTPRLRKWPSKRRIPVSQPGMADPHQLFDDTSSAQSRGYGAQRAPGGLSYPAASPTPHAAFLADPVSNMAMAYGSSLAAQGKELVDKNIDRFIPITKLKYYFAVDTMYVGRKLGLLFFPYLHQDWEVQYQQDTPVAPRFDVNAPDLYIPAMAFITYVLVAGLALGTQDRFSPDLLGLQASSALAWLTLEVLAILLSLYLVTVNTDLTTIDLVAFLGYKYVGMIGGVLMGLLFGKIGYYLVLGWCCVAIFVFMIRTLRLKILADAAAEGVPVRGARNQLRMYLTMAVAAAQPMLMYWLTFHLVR
UniProt Q6PJT7: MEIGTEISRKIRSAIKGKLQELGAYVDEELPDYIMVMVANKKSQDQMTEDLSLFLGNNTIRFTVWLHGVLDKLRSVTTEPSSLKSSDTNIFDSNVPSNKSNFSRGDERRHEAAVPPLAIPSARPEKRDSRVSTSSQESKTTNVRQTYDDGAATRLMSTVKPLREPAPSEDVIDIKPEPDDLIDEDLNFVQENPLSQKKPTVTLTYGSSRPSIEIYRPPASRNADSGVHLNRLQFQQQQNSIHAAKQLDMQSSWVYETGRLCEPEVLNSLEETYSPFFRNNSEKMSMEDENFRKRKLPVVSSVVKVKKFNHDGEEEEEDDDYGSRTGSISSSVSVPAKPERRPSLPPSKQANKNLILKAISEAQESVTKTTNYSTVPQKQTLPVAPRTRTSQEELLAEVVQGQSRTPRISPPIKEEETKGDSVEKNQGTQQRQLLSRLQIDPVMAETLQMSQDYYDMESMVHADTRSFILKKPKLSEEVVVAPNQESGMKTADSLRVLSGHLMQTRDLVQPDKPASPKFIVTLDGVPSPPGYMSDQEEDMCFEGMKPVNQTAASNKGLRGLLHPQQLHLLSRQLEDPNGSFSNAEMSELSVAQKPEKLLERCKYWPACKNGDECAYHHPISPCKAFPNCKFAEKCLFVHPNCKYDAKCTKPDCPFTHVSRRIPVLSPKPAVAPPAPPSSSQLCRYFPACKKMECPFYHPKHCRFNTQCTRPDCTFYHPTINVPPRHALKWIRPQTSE
UniProt O96006: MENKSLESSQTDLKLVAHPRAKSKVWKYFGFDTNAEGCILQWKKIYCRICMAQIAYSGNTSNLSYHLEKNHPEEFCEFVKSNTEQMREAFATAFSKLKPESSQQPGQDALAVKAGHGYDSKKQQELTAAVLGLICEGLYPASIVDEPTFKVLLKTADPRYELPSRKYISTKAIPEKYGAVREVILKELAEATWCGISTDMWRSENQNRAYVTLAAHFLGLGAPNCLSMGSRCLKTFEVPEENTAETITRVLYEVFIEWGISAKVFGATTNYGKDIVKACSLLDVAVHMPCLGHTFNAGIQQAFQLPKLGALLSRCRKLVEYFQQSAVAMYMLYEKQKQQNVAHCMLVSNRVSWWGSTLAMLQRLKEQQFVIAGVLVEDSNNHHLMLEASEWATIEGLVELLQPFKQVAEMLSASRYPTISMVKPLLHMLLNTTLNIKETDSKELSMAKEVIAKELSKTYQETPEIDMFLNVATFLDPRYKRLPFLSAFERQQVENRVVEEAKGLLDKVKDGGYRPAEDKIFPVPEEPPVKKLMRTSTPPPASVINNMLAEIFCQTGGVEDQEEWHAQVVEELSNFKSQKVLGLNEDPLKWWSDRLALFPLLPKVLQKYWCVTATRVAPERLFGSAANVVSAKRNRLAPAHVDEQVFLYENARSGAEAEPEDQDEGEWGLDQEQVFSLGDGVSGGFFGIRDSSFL
UniProt Q5T200: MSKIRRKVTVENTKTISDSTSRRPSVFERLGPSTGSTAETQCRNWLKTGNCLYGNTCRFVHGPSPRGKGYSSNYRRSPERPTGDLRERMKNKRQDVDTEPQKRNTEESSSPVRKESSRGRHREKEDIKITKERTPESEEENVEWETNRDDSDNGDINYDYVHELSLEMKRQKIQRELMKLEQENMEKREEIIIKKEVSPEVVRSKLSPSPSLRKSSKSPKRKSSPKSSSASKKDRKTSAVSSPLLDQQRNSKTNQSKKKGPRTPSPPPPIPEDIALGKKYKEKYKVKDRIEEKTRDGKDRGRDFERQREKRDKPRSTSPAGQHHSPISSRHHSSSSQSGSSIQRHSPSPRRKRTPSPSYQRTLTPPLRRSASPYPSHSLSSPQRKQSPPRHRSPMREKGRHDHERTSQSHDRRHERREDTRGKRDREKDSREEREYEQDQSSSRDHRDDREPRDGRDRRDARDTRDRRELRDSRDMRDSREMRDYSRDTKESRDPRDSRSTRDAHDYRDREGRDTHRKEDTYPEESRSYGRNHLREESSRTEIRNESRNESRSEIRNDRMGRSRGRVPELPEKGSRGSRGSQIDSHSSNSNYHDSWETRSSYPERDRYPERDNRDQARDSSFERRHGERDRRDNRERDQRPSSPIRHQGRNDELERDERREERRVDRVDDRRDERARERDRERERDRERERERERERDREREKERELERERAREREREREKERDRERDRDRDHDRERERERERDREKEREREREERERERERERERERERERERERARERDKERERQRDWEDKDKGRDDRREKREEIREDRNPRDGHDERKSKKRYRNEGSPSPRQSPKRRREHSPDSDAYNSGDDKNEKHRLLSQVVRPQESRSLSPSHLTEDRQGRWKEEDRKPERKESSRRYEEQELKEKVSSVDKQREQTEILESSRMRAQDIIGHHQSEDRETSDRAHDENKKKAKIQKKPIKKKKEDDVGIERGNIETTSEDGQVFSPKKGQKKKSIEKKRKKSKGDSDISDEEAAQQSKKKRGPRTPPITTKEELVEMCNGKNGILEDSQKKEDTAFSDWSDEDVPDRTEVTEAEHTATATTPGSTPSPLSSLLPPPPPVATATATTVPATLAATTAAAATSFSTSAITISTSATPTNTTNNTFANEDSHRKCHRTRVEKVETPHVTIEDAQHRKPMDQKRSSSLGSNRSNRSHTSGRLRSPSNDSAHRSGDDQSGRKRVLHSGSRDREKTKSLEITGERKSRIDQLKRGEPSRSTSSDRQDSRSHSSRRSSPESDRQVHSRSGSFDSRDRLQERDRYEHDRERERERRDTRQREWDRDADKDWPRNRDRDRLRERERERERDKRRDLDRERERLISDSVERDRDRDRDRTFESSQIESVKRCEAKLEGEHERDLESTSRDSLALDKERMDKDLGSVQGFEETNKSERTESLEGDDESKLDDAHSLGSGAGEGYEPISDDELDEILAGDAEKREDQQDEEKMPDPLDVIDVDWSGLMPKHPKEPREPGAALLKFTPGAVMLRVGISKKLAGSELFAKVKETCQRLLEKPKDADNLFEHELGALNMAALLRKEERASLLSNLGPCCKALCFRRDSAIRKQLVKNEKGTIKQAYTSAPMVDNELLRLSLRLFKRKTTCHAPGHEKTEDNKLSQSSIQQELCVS
UniProt Q9ULJ3: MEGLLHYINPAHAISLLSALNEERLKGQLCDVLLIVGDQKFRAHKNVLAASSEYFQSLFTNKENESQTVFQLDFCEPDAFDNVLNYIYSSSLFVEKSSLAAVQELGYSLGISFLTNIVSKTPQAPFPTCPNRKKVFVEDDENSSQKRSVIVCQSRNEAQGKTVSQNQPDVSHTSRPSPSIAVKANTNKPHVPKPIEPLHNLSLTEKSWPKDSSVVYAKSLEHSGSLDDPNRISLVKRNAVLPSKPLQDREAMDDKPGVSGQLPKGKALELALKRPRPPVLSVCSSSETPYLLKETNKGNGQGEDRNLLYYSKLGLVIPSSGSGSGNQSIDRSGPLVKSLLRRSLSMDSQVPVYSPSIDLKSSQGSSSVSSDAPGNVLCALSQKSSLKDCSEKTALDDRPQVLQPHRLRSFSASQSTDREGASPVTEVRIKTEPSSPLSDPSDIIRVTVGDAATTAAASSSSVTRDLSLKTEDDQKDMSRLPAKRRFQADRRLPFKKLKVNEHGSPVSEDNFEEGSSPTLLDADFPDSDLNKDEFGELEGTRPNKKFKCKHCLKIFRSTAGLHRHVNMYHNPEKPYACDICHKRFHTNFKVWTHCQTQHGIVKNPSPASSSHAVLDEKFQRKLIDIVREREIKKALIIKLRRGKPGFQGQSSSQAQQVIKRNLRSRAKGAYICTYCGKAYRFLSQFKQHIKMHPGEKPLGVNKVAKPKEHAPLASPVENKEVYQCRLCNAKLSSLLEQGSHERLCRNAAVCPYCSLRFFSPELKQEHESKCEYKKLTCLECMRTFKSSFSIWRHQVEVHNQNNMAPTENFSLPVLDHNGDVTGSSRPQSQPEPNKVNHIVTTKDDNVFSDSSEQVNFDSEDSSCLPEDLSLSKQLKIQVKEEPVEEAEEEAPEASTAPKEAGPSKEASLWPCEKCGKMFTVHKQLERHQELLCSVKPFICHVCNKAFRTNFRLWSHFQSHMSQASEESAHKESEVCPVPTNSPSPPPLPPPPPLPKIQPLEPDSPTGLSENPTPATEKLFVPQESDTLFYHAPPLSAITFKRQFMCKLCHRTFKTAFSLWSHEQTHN

compound: Cc1cc(Nc2cc(N3CCN(C)CC3)nc(Sc3ccc(NC(=O)C4CC4)cc3)n2)n[nH]1 [tozasertib]; assay: log2 fold change, soluble protein after heating vs DMSO (PISA); higher = thermal stabilisation; K562 lysate, 10 uM; active = over 0.2 and 3.5 SD of the protein, either way, in both replicates (recomputed)
Method in brief: (§1)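 A 30 min treatment with 10 μM compound was applied to crude K562 extract at 1 mg/mL protein in PBS pH 7.4 with 1 mM MgCl2. Heating for 3 min spanned 48°C-58°C, after which aliquots were pooled, adjusted to 0.5% NP-40 at 4°C and spun at 21,000xg for 90 min. TMTpro 16plex LC-MS/MS of the supernatant, with channel sums equalised, gave values recorded as log-two fold change in thermal stability against solvent controls, from duplicates.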

**Q.** Which log2 fold change does the source give for YKT6 (UniProt O15498) here?
**A.** The log2 fold change was inactive: -0.021.

**Q.** Which log2 fold change does the source give for ZFC3H1 (UniProt O60293) here?
**A.** The log2 fold change was inactive: 0.081.

**Q.** How did the log2 fold change turn out when ZBTB24 (UniProt O43167) was run?
**A.** The log2 fold change was inactive: 0.046.

**Q.** For XYLB (UniProt O75191), which log2 fold change is on record?
**A.** Its log2 fold change is inactive: -0.116.

**Q.** With XPO7 (UniProt Q9UIA9) as the target, how does the log2 fold change read?
**A.** The log2 fold change was inactive: -0.005.

**Q.** For XRCC1 (UniProt P18887), which log2 fold change is on record?
**A.** The log2 fold change was inactive: 0.004.

**Q.** How did the log2 fold change turn out when YPEL5 (UniProt P62699) was run?
**A.** The log2 fold change was inactive: 0.037.

**Q.** For YOD1 (UniProt Q5VVQ6), which log2 fold change is on record?
**A.** Its log2 fold change is inactive: -0.003.

**Q.** How did the log2 fold change turn out when ZBTB10 (UniProt Q96DT7) was run?
**A.** The log2 fold change was inactive: 0.076.

**Q.** Which log2 fold change does the source give for YBX3 (UniProt P16989) here?
**A.** The log2 fold change was inactive: -0.004.

**Q.** Which log2 fold change does the source give for YAF2 isoform 5 (UniProt Q8IY57) here?
**A.** Its log2 fold change is inactive: -0.139.

**Q.** Which log2 fold change does the source give for XRCC4 (UniProt Q13426) here?
**A.** Its log2 fold change is inactive: 0.026.

**Q.** With ZFAND3 (UniProt Q9H8U3) as the target, how does the log2 fold change read?
**A.** Its log2 fold change is inactive: -0.038.

**Q.** How did the log2 fold change turn out when ZBTB8OS (UniProt Q8IWT0) was run?
**A.** Its log2 fold change is inactive: 0.003.

**Q.** With XRN1 (UniProt Q8IZH2) as the target, how does the log2 fold change read?
**A.** Its log2 fold change is inactive: 0.103.

**Q.** How did the log2 fold change turn out when ZFYVE21 isoform 2 (UniProt Q9BQ24) was run?
**A.** The log2 fold change was inactive: 0.11.

**Q.** With ZCCHC17 (UniProt Q9NP64) as the target, how does the log2 fold change read?
**A.** The log2 fold change was inactive: -0.019.

**Q.** Which log2 fold change does the source give for YIPF4 (UniProt Q9BSR8) here?
**A.** The log2 fold change was inactive: -0.011.

**Q.** For XPR1 (UniProt Q9UBH6), which log2 fold change is on record?
**A.** Its log2 fold change is inactive: 0.

**Q.** How did the log2 fold change turn out when YWHAQ (UniProt P27348) was run?
**A.** The log2 fold change was inactive: -0.024.

**Q.** ZDHHC20 (UniProt Q5W0Z9) was tested. Which log2 fold change did it give?
**A.** The log2 fold change was inactive: 0.007.

**Q.** With YTHDF1 (UniProt Q9BYJ9) as the target, how does the log2 fold change read?
**A.** The log2 fold change was inactive: -0.013.

**Q.** How did the log2 fold change turn out when ZDHHC5 (UniProt Q9C0B5) was run?
**A.** Its log2 fold change is inactive: 0.022.

**Q.** How did the log2 fold change turn out when YIF1B (UniProt Q5BJH7) was run?
**A.** Its log2 fold change is inactive: -0.012.

**Q.** With ZC3H14 (UniProt Q6PJT7) as the target, how does the log2 fold change read?
**A.** The log2 fold change was inactive: -0.013.

**Q.** For YLPM1 (UniProt P49750), which log2 fold change is on record?
**A.** The log2 fold change was inactive: 0.017.

**Q.** ZBED1 (UniProt O96006) was tested. Which log2 fold change did it give?
**A.** The log2 fold change was inactive: 0.006.

**Q.** How did the log2 fold change turn out when ZFYVE9 (UniProt O95405) was run?
**A.** Its log2 fold change is inactive: -0.095.

**Q.** How did the log2 fold change turn out when YARS2 (UniProt Q9Y2Z4) was run?
**A.** Its log2 fold change is inactive: -0.013.

**Q.** Which log2 fold change does the source give for YWHAH (UniProt Q04917) here?
**A.** The log2 fold change was inactive: 0.

**Q.** Which log2 fold change does the source give for ZC3H8 (UniProt Q8N5P1) here?
**A.** Its log2 fold change is inactive: 0.057.

**Q.** With XPO6 (UniProt Q96QU8) as the target, how does the log2 fold change read?
**A.** Its log2 fold change is inactive: 0.072.

**Q.** For XRCC5 (UniProt P13010), which log2 fold change is on record?
**A.** The log2 fold change was inactive: -0.003.

**Q.** Which log2 fold change does the source give for ZCCHC3 (UniProt Q9NUD5) here?
**A.** Its log2 fold change is inactive: 0.013.

**Q.** With YTHDF3 (UniProt Q7Z739) as the target, how does the log2 fold change read?
**A.** Its log2 fold change is inactive: -0.03.

**Q.** How did the log2 fold change turn out when YME1L1 (UniProt Q96TA2) was run?
**A.** Its log2 fold change is inactive: 0.048.

**Q.** For ZC3H13 (UniProt Q5T200), which log2 fold change is on record?
**A.** The log2 fold change was inactive: 0.062.

**Q.** Which log2 fold change does the source give for ZBTB21 (UniProt Q9ULJ3) here?
**A.** Its log2 fold change is inactive: -0.013.

compound: Cc1ccc(-n2nc(C(C)(C)C)cc2NC(=O)Nc2ccc(OCCN3CCOCC3)c3ccccc23)cc1 [doramapimod]; assay: as above
Method in brief: as §1

**Q.** With YKT6 (UniProt O15498) as the target, how does the log2 fold change read?
**A.** The log2 fold change was inactive: 0.039.

**Q.** Which log2 fold change does the source give for ZFC3H1 (UniProt O60293) here?
**A.** Its log2 fold change is inactive: 0.08.

**Q.** How did the log2 fold change turn out when ZBTB24 (UniProt O43167) was run?
**A.** Its log2 fold change is inactive: 0.006.

**Q.** For XYLB (UniProt O75191), which log2 fold change is on record?
**A.** Its log2 fold change is inactive: 0.045.

**Q.** Which log2 fold change does the source give for XPO7 (UniProt Q9UIA9) here?
**A.** Its log2 fold change is inactive: 0.002.

**Q.** For XRCC1 (UniProt P18887), which log2 fold change is on record?
**A.** The log2 fold change was inactive: -0.002.

**Q.** How did the log2 fold change turn out when YPEL5 (UniProt P62699) was run?
**A.** Its log2 fold change is inactive: 0.1.

**Q.** For YOD1 (UniProt Q5VVQ6), which log2 fold change is on record?
**A.** The log2 fold change was inactive: 0.015.

**Q.** With ZBTB10 (UniProt Q96DT7) as the target, how does the log2 fold change read?
**A.** The log2 fold change was inactive: 0.011.

**Q.** How did the log2 fold change turn out when YBX3 (UniProt P16989) was run?
**A.** Its log2 fold change is inactive: -0.007.

**Q.** With YAF2 isoform 5 (UniProt Q8IY57) as the target, how does the log2 fold change read?
**A.** The log2 fold change was inactive: 0.005.

**Q.** For XRCC4 (UniProt Q13426), which log2 fold change is on record?
**A.** Its log2 fold change is inactive: -0.089.

**Q.** With ZFAND3 (UniProt Q9H8U3) as the target, how does the log2 fold change read?
**A.** Its log2 fold change is inactive: 0.101.

**Q.** How did the log2 fold change turn out when ZBTB8OS (UniProt Q8IWT0) was run?
**A.** Its log2 fold change is inactive: -0.054.

**Q.** Which log2 fold change does the source give for XRN1 (UniProt Q8IZH2) here?
**A.** Its log2 fold change is inactive: -0.032.

**Q.** For ZFYVE21 isoform 2 (UniProt Q9BQ24), which log2 fold change is on record?
**A.** The log2 fold change was inactive: -0.035.

**Q.** How did the log2 fold change turn out when ZCCHC17 (UniProt Q9NP64) was run?
**A.** The log2 fold change was inactive: 0.09.

**Q.** With YIPF4 (UniProt Q9BSR8) as the target, how does the log2 fold change read?
**A.** The log2 fold change was inactive: 0.025.

**Q.** For XPR1 (UniProt Q9UBH6), which log2 fold change is on record?
**A.** The log2 fold change was inactive: -0.038.

**Q.** Which log2 fold change does the source give for YWHAQ (UniProt P27348) here?
**A.** The log2 fold change was inactive: -0.043.

**Q.** For ZDHHC20 (UniProt Q5W0Z9), which log2 fold change is on record?
**A.** The log2 fold change was inactive: -0.072.

**Q.** For YTHDF1 (UniProt Q9BYJ9), which log2 fold change is on record?
**A.** Its log2 fold change is inactive: 0.164.

**Q.** ZDHHC5 (UniProt Q9C0B5) was tested. Which log2 fold change did it give?
**A.** The log2 fold change was inactive: 0.019.

**Q.** For YIF1B (UniProt Q5BJH7), which log2 fold change is on record?
**A.** Its log2 fold change is inactive: 0.003.

**Q.** With ZC3H14 (UniProt Q6PJT7) as the target, how does the log2 fold change read?
**A.** The log2 fold change was inactive: -0.034.

**Q.** YLPM1 (UniProt P49750) was tested. Which log2 fold change did it give?
**A.** Its log2 fold change is inactive: -0.042.

**Q.** With ZBED1 (UniProt O96006) as the target, how does the log2 fold change read?
**A.** The log2 fold change was inactive: 0.004.

**Q.** With ZFYVE9 (UniProt O95405) as the target, how does the log2 fold change read?
**A.** The log2 fold change was inactive: -0.014.

**Q.** How did the log2 fold change turn out when YARS2 (UniProt Q9Y2Z4) was run?
**A.** Its log2 fold change is inactive: 0.016.

**Q.** How did the log2 fold change turn out when YWHAH (UniProt Q04917) was run?
**A.** The log2 fold change was inactive: -0.028.

**Q.** How did the log2 fold change turn out when ZC3H8 (UniProt Q8N5P1) was run?
**A.** The log2 fold change was inactive: -0.016.

**Q.** XPO6 (UniProt Q96QU8) was tested. Which log2 fold change did it give?
**A.** Its log2 fold change is inactive: 0.034.

**Q.** With XRCC5 (UniProt P13010) as the target, how does the log2 fold change read?
**A.** The log2 fold change was inactive: -0.024.

**Q.** Which log2 fold change does the source give for ZCCHC3 (UniProt Q9NUD5) here?
**A.** The log2 fold change was inactive: 0.001.

**Q.** YTHDF3 (UniProt Q7Z739) was tested. Which log2 fold change did it give?
**A.** Its log2 fold change is inactive: 0.078.

**Q.** For YME1L1 (UniProt Q96TA2), which log2 fold change is on record?
**A.** Its log2 fold change is inactive: -0.023.

**Q.** For ZC3H13 (UniProt Q5T200), which log2 fold change is on record?
**A.** The log2 fold change was inactive: 0.149.

**Q.** Which log2 fold change does the source give for ZBTB21 (UniProt Q9ULJ3) here?
**A.** Its log2 fold change is inactive: 0.011.
